# Library screen at single concentrations

The filed quantity is “Percent Effect” (%).
The record does not define 0% and 100%; most values in the screen are far below 50% and negative numbers occur (in some assays of this library far below -100).
This is an unselected part of the compounds tested.
Two or more numbers in one place are separate tests of the same structure; such repeats can differ widely.

A: 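Growth of Mycobacterium tuberculosis over 4 days (cholesterol / DPPC medium with tyloxapol); the read-out is not stated. Tested at 50 µM. Higher reads as more growth inhibition (inferred: compounds with an IC50 in retests scored well above the rest). Size under these conditions: about 69,000 compounds, about 370 of them at 50% or above in at least one test.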
B: 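Growth of Mycobacterium tuberculosis over 3 days (7H9 medium with glucose and tyloxapol); the read-out is not stated. Tested at 50 µM. Direction is inferred from retests: higher values go with more growth inhibition. Of about 69,000 compounds tested this way, about 760 (1.1%) reached 50% or more in at least one test.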

compound	A	B
OCC1(O)CCN(c2ncccc2C(F)(F)F)CC1	2.342%	7.356%
Cc1ccc(C(=O)NS(=O)(=O)c2cccc3cnccc23)c(=O)[nH]1	-6.553%	-23.36%
CN1CCN(C(=O)c2cccn2C)c2ccccc2C1	-22% and -9.471%	3.817%
O=C(Cc1ccc2c(c1)OCCO2)NC1CC1	-10.5%	-12.15%
CN(C)c1ccc(CNCc2ccc(N3CCOCC3)cc2)cn1	-8.377%	-4.408%
NC(=O)CN(Cc1cccc(Oc2ccccc2)c1)C(=O)C1CC1	10.84%	19.84% and 0.777%
COc1cc2nc3n(c(=O)c2cc1OC)CCN(C(=O)C(C)(C)C)CC3	-11.49%	-15.82%
CN(C)CCN(C)S(=O)(=O)CC1CCOCC1	-26.57%	-3.508%
Cn1cc(CNC2CCCN(Cc3noc(C4CC4)n3)C2)cn1 (stereo unspecified)	-29.34%	-31.92%
Cc1oncc1S(=O)(=O)N1CCCC(C)(Cc2ccc3c(c2)OCO3)C1 (stereo unspecified)	2.991% and -5.43%	-0.1894% and 3.274%
N#Cc1cccc(CN2Cc3nccn3CC(CN3CCCC3)C2)c1.O=C(O)C(F)(F)F.O=C(O)C(F)(F)F (stereo unspecified)	6.455%	-0.7738%
Cc1nc(CN2CCCN(CC(=O)N(C)CCC#N)CC2)no1	-3.718%	23.12% and -1.11%
Cc1nc(C)n(CC2CCCN(CCc3ccccn3)C2)n1 (stereo unspecified)	-29.6%	-36.35%
Cc1cnc(NC(=O)c2cccc(CN(C)Cc3snnc3C)c2)s1	31.48%	43.77%
CC1CCc2nn(CCNC(=O)Cc3ccc(F)cc3)c(=O)cc2C1 (stereo unspecified)	-15.75%	-8.735%
CNc1ncc(CN(C)C(=O)CCc2[nH]nc3c2CCCC3)cn1	8.062%	11.33% and 2.441%
Cc1cc(C(=O)N2CC[C@H](N3CCN(C)CC3)[C@H](CCCO)C2)n(C)n1	-13.4%	-38.63%
CC(=O)NC[C@]1(O)CCN(C(=O)c2ccc3c(c2)OCO3)C[C@H]1O	-18.07%	-15.58%
CCN1CCN(C(=O)CCc2c(C)noc2Cl)CC1	-8.432%	-11.91%
CCn1ncc(C(=O)N2CCCN(CCCc3ccccc3)CC2)c1C	-12.98% and 4.534%	6.49%
O=C(NCc1ccnc(OCC(F)(F)F)c1)NCC1CCCO1 (stereo unspecified)	-16.66%	1.671% and -4.835%
COc1ccc(C2CC(=O)c3c(O)cc(O)cc3O2)cc1O (stereo unspecified)	-2.914%	-12.13% and 8.122%
CCOC[C@@H]1CCC[C@]12CN(S(=O)(=O)c1cn(C)cn1)CCO2	3.289%	10.88%
CC1CCN(C(=O)c2cn(-c3cc(N4CCSCC4)ncn3)cn2)CC1	27.7%	-0.365%
CNC(=O)Cc1noc(Cc2cccc(Br)c2)n1	-7.006%	4.942%
Cc1cc(NC(=O)C(C)N2CCN(c3ccccc3F)CC2)no1 (stereo unspecified)	27.03%	7.402%
[H][C@@]12CS(=O)(=O)C[C@]1([H])NCCN2c1ccnc(N(C)CC)n1	-12.34%	1.431%
CC(C)CC(C)N(C)C(=O)CCn1cccn1 (stereo unspecified)	10.32%	37.69%
O=C(O)C(F)(F)F.[H][C@]12CC(CN3CCCC3)N(C(C)=O)[C@@]1([H])CCN(C(=O)c1ccoc1)C2 (stereo partly specified)	-2.581%	4.045%
CCOc1ccc(Cl)c(C(=O)N2CCN(C(=O)OC)CC2)n1	2.015%	21.49%
COCCC1(CO)CCCN(Cc2ccc(C#N)cc2)C1 (stereo unspecified)	1.456% and 2.577%	2.443% and -55.75%
CN(C)C1CCN(C(=O)c2ccc(Cn3ccccc3=O)o2)CC1	-11.42%	11.46%
COc1ccc(-c2c(C(C)C)nn3c(=N)c(C#N)n[nH]c23)cc1	-5.452%	13.26%
CO[C@@H]1c2ccccc2C2(CCN(C(=O)CNS(C)(=O)=O)CC2)[C@H]1O	-13.45%	-36.73%
CN1CCN(c2ncc(-c3cnccn3)c([C@H]3CCCO3)n2)CC1	-17.17%	-2.218%
O=C(NCCc1ccc(Cl)s1)NCc1nnc2n1CCC2	-12.26%	-14.22%
CCN1CC2(CCC1=O)CCN(Cc1nncn1C(C)C)CC2	4.298%	20.23%
CCOc1ncccc1NC(=O)c1cccs1	7.867%	23.96%
[H][C@@]12C[C@H](C(=O)NC)[C@@]([H])(CN(C(=O)Nc3ccc(F)cc3)C1)O2	-2.7%	12.86%
N#CC1(NC(=O)c2ccn(-c3ccccc3Cl)n2)CCSC1 (stereo unspecified)	6.91%	7.49%
CC(C)N1CCCC2(CCN(C(=O)CCCn3cccn3)C2)C1=O (stereo unspecified)	2.972%	-12.39%
COC(=O)c1c(C(F)(F)F)cnc(OC)c1Cl	-16.42%	1.788% and -0.6786%
Cc1cc(C)cc(C(=O)NCCS(=O)(=O)N2CCSCC2)c1	16.28%	-1.062%

Repeated from the top, 3 entries:

compound,A,B
OCC1(O)CCN(c2ncccc2C(F)(F)F)CC1,2.342%,7.356%
Cc1ccc(C(=O)NS(=O)(=O)c2cccc3cnccc23)c(=O)[nH]1,-6.553%,-23.36%
CN1CCN(C(=O)c2cccn2C)c2ccccc2C1,-22% and -9.471%,3.817%

Source: ChEMBL document CHEMBL3988442, “University of Dundee, Small-Polar-MMV Screening Library” (2021).